In patent publication US20240041796A1, “ANTI-INFLAMMATORY COMPOSITION COMPRISING N-BENZYL-N-METHYLDECAN-1-AMINE OR A DERIVATIVE THEREOF AS AN ACTIVE INGREDIENT” (PUSAN NATIONAL UNIVERSITY INDUSTRY-UNIVERSITY COOPERATION …, priority 2022, published 2024):
At least one structure is not confirmed: it was looked up by name or label, or the drawing left a doubt.

Experiments:
THP-1 cell line = experiment: LPS-induced signaling pathway in THP-1 cells pretreated with FMJ-G0 derivatives; type: cell-based, human; conditions: pretreated 4 μM 1 hour, LPS 1 μg/mL 4 hours; FIG. 8B
Procedure: Thereafter, the THP-1 cell line was pretreated with the synthesized FMJ-G0 derivatives FMJ-G1, FMJ-G2, and FMJ-G3 at a concentration of 4 μM for 1 hour. Lipopolysaccharide (1 μg/mL) was added to a culture medium in which the THP-1 cell line was cultured for 4 hours. The same cell line was collected, and a signaling pathway involved in inflammatory cytokine synthesis was identified, and the result is shown in FIG. 8B.

Balb/C mice = experiment: DNCB-induced atopic dermatitis model, cosmetic cream applied to the skin; type: in vivo, mouse; conditions: cosmetic cream (0.3% active; Lidomax ointment 0.15%) applied to the back for 2 weeks; FIG. 9A, 9C
Procedure: Wed added 0.3 g of olive wax to 2 mL of soybean oil (Sigma-Aldrich) in a glass tube (15 ml), and put the tube in a 75° C. water-bath, and performed a double boiling thereon to melt the olive wax for 30 minutes while vortexing the tube at 10 minute interval. Under the same conditions, 7.7 ml of purified water was put into a 75° C. water-bath and heated the same for 30 minutes. Next, 7.5 ml of purified water was poured into the tube containing the olive wax and the mixture was stirred well via vortexing. Then, […] (0.3%) of each of BMDA and derivatives thereof (FMJ-G0, FMJ-G4, FMJ-G1, FMJ-G2, FMJ-G3) as synthesized in Examples 1 and 3 were added to the mixture, followed by stirring. […]
To this end, the atopic dermatitis is induced in FIG. 9, and on 2 weeks since the treatment with BMDA (FMJ-G0) and DMMA (FMJ-G4), blood (500 ul) is collected from the hepatic veins of the rats of the above groups, and left at room temperature for 30 minutes. Then, serum was separated and prepared via centrifugation, and then, the IgE concentration related to the allergic reaction was measured through ELISA using the serum thus prepared.
Anti-mouse IgE (Pharmingen, CA, USA) was diluted with PBS (pH 7.4) on a 96-well plate, 100 μL thereof was coated on each 96-well plate, and then left at 4° C. for 12 hours. […] Absorbance was measured at 405 nm using ELISA reader (Epoch2, Biotek, VT, USA). […]

**Q.** For CCCCCCCCCCN(C)Cc1ccc(F)cc1 [FMJ-G3, (decyl-4-fluoro-benzyl)-methyl-amine], which “phosphorylation of JNK resulting from LPS” value (THP-1 cell line) is on record?
**A.** Its value is “inhibited”.

**Q.** What about the “phosphorylation of MK2 resulting from LPS” value (THP-1 cell line) of the same compound?
**A.** The value was “inhibited”.

**Q.** And the “phosphorylation of p38 MAP kinase resulting from LPS” value (THP-1 cell line)?
**A.** Its value is “inhibited”.

**Q.** What about the “DNCB-induced atopic dermatitis (level of dermatitis)” value (Balb/C mice) of the same compound?
**A.** The value was “significantly alleviates”.
